Results on two molecules are retold here after publication PMC10656229.

Amino acid sequences for entries named in this document (tags omitted).
UniProt Q6SEG5: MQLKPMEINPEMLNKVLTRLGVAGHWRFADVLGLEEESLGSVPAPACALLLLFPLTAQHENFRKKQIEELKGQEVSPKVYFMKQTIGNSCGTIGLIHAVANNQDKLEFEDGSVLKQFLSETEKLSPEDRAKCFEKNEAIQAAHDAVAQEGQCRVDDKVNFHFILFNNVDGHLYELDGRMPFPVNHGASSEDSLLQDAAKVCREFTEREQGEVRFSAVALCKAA

Results are given in words; binding and its absence hold for the method and conditions named. Binding seen in cells or lysates may run through a third protein. Some binding calls cover weakened binding; strength is not graded here. Tags and fused reporters may be left off the sequences shown.

The target in assay [1] is T1, voltage-dependent anion channel 2 (VDAC2) (pig (endogenous in porcine granulosa cells)) (UniProt Q9MZ15).
T1 sequence: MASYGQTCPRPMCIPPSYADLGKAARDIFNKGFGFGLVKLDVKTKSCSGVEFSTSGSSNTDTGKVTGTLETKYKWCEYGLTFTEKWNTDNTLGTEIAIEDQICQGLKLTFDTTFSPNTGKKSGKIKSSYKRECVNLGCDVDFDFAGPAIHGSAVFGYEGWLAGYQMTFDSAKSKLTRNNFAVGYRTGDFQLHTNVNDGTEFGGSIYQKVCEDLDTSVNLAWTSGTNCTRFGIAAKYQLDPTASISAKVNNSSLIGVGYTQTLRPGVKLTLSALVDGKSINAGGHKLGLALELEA
Briefly: co-IP; lysate of porcine granulosa cells; endogenous proteins precipitated with anti-UCHL1 or anti-VDAC2 antibody and magnetic beads, IgG as negative control; Western blot with UCHL1 and VDAC2 antibodies. Background: A western blot detects proteins with antibodies after separation by electrophoresis.

The target of assay [2] is ubiquitin C-terminal hydrolase 1 (UCHL1) (pig (endogenous in porcine granulosa cells)) (UniProt Q6SEG5). Described as above.

With “ubiquitin C-terminal hydrolase 1 (UCHL1) (from UniProt Q6SEG5 1-223) (enzyme)”, the binding result in assay [1] is recorded as “binds”.

B1: voltage-dependent anion channel 2 (VDAC2) (protein, UniProt Q9MZ15 1-294)
chain: T1 sequence
For the molecule B1, the binding entry in assay [2] is given as “binds”.
